The assay deals with post-incisional mechanical allodynia. Nature of the assay: animal or person. Particulars: Rattus norvegicus, sc, 1 h, read-out: ED50, percent reversal of mechanical allodynia. The text has this: Data are expressed as mean±standard error of the mean (S.E.M.), and p<0.05 was accepted as statistically significant.

The source of these data is US20240252583A1, “Compositions and Methods for Treating Persistent Postsurgical Pain” (priority 2021, published 2024).

For orientation: ED50 means the dose at which the effect has come halfway, by size or by number of responders.

For `CN1CC[C@]23c4c5ccc(O)c4O[C@H]2[C@@H](O)C=C[C@H]3[C@H]1C5` [morphine], the ED50 is 3.19 mg/kg.
